Laboratory results from US20070003484 (published 2007).

Assay: peptide synthesis
Details: conjugation step

In the case of ACTH (1-17), the conjugation yield is reported as 74%.

In the case of H-Arg-Gly-Asp-Cys-OH, the conjugation yield is reported as 92%.

H-Asp-Leu-Trp-Gln-Lys-OH gave a conjugation yield of 88%.
